# Test results reported in US20190247353A1, “ACNE STRAIN-SELECTIVE ANTIBACTERIAL AGENT” (MOMOTANI JUNTENKAN CO., LTD., priority 2016, published 2019).
# How the values were obtained:
# Format in all cases: cell-based, Propionibacterium acnes
# [1] = test system: HL053PA1 strain (RT4); experiment: MIC by broth microdilution method, HL053PA1 strain; conditions: Cutibacterium acnes, read-out: MIC against acne bacterium strain HL053PA1 strain (RT4)
# Protocol: (§1) An MIC is measured herein according to the broth microdilution method which is the standard method of Japanese Society of Chemotherapy.
# (§2) The antibacterial activity of a test substance was determined based on the minimum inhibitory concentration (MIC). An MIC was measured according to the broth microdilution method which is the standard method of Japanese Society of Chemotherapy.
# (§3) One-loopful of each acne bacterium strain listed in Table 1 was scraped off and inoculated into 5 mL of a GAM broth slant agar medium (pH 7.0, Nissui Pharmaceutical Co., Ltd.).
# (§4) The inoculated acne bacterium strain was precultured at 37° C. in a nitrogen atmosphere (anaerobic condition) for 48 hours. The precultured microbial cells were diluted in a modified GAM broth liquid medium (pH 6.0) to a concentration of 5.0×10^4 cfu/mL (viable cell count per OD660=1 is 2.0×10^9 cfu/mL), to prepare strain suspensions.
# (§5) Each fatty acid (Tokyo Chemical Industry Co., Ltd.) listed in Table 2 was dissolved in dimethylsulfoxide (DMSO) as a solvent such that the concentration became 10,000 μg/mL, and used as a test substance.
# (§6) Each of strain suspensions (5.0×10^4 cfu/mL) was aliquoted in a 96-well round bottom microplate, each of the test substance (fatty acid concentration 10,000 μg/mL) was added at a 1/10 volume to the aliquot and mixed to prepare measurement samples (fatty acid concentration: 1,000 μg/mL). […]
# [2] = test system: HL043PA1 strain (RT5); experiment: MIC by broth microdilution method, HL043PA1 strain; conditions: Cutibacterium acnes, read-out: MIC against acne bacterium strain HL043PA1 strain (RT5)
# Protocol: as §1, §2, §3
# The inoculated acne bacterium strain was precultured at 37° C. in a nitrogen atmosphere (anaerobic condition) for 48 hours. […]
# as §5
# as §6, with “μg/mL). Measurement samples in 2-fold dilution series were prepared using the strain suspension (fatty acid concentration from 0.48 to 1,000 μg/mL).” for “μg/mL).”
# [3] = test system: HL110PA3 strain (RT6); experiment: MIC by broth microdilution method, HL110PA3 strain; conditions: Cutibacterium acnes, read-out: MIC against acne bacterium strain HL110PA3 strain (RT6)
# Protocol: as §1, §2, §3, §4, §5, §6
# [4] = test system: HL053PA1 strain (RT4) and HL043PA1 strain (RT5) versus HL110PA3 strain (RT6); experiment: Strain-selective antibacterial activity (average of MICRT6/MICRT4 and MICRT6/MICRT5); conditions: control antibacterial agents, Comparative Example 1
# Text: Herein, “acne strain-selective antibacterial activity” or “strain-selective antibacterial activity” means an index indicating better inhibition of growth of a dominant strain in acne patients compared to that of a dominant strain in healthy subjects. It is expressed by the average value of the values (MICRT6/MICRT4, and MICRT6/MICRTS) obtained by dividing the minimum inhibitory concentration (MIC) of an object substance with respect to the dominant strain in healthy subjects (RT6 strain) (MICRT6) respectively by the MIC of the object substance with respect to the dominant strain in acne patients (RT4 strain) (MICRT4), and by the MIC of the object substance with respect to the dominant strain in acne patients (RT5 strain) (MICRT5).
# The strain-selective antibacterial activity of each test substance (Table 2, right-most column) was evaluated based on the following rating criteria (Table 3). When the strain-selective antibacterial activity is indicated by a numerical range, the rating was based on the minimum value thereof.
compound,measurement,setting,value
"CCCCCCCCCCCCCCCC[n+]1ccccc1 [Cetyl pyridinium chloride, reference compound]",MIC,[1],15.6 µg/mL
same,MIC,[2],7.81 µg/mL
same,MIC,[3],3.9 µg/mL
same,Strain-selective antibacterial activity,[4],0.37
